Measured values published in publication PMC7819943, “Rice protein-binding microarrays: a tool to detect cis-acting elements near promoter regions in rice”.
Some of the results follow.

Chains of the proteins cited; added tags and fusions are not shown.
UniProt Q0JBA9, entry or part of it: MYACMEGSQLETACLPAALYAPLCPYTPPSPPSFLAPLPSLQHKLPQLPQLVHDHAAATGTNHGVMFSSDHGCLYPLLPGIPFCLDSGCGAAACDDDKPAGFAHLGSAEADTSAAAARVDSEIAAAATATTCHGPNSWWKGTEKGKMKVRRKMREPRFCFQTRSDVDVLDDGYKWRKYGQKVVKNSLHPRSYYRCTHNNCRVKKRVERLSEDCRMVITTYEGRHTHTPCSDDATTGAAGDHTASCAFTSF

Each sequence was assayed against OsWRKY34 (Oryza sativa, UniProt Q0JBA9 1-250) (assay: protein-binding microarray (RPBM); PBS, 2% BSA, 51.3 ng/ul salmon testes DNA, 50 uM zinc acetate, 200 nM TF, 25 C, 1 h; high values mean tight binding). Details: protein: recombinant; tags: N-terminal polyhistidine and DsRed monomer fusion (pET32a); label: CyDye5-dUTP incorporated in the synthesized complementary strand; 3' TTTTT single-stranded linker to array surface; dsDNA, one strand shown.
Method in brief: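 Ni–NTA purification followed expression in E. coli BL21-CodonPlus of transcription factors fused N-terminally to a polyhistidine tag and DsRed. At 200 nM in PBS with 2% BSA, salmon testes DNA and 50 µM zinc acetate, the protein was incubated for 1 h at 25 °C with a custom Agilent array that had been primer-extended with Cy5-dUTP and blocked with 2% BSA. After washing, the array was read on an Axon 4000B scanner. The binding signal is per-feature fluorescence intensity in arbitrary units.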

Row | Sequence | binding signal
1 | CTCACTCCACCACTCCGGTTTTATACTCCTCCTATCTCTCCGGAGTCACCTAGTGCAG | 8610 fluorescence intensity (a.u.)
2 | ACTTCTGCCGCGCCATTTTTGTCACCCCAGGTTTGCTGCCCGGAGTCACCTAGTGCAG | 9040 fluorescence intensity (a.u.)
3 | CAGCATCATCCTTTCGCTTATGCTTATATTTATCAGCCAACGGAGTCACCTAGTGCAG | 8940 fluorescence intensity (a.u.)
4 | TATTGTATTGGGTTGGGCCTTTGTGGTTGTCTAATGAAGTCGGAGTCACCTAGTGCAG | 22300 fluorescence intensity (a.u.)
5 | CTTCCAATTTCCCATCGCCCCGTCGCCGACTCGCCGTCTCCGGAGTCACCTAGTGCAG | 10800 fluorescence intensity (a.u.)
6 | CCAACACACATGTACTCGTGGATTCCGTAGTCGTCGTCATCGGAGTCACCTAGTGCAG | 8280 fluorescence intensity (a.u.)
7 | CACTCGTCAGGCGTCCCACTGCTCCGCTGCTATAAGAAACCGGAGTCACCTAGTGCAG | 10100 fluorescence intensity (a.u.)
8 | ATGGATGGTGGGGAATAATGCATATGTTACAGCGATTTAACGGAGTCACCTAGTGCAG | 12300 fluorescence intensity (a.u.)
9 | TTCCCGCATGCACAACGACAACCCTCCTGTGTGCACGTTACGGAGTCACCTAGTGCAG | 8390 fluorescence intensity (a.u.)
10 | CTCTGCTTTGCGTGGGCACTGTTTAACCATTTTGTCATGTCGGAGTCACCTAGTGCAG | 8370 fluorescence intensity (a.u.)
11 | GTTATAGCGCATCTATCAATCGTACTAAATTTCATTGTCCCGGAGTCACCTAGTGCAG | 8450 fluorescence intensity (a.u.)
12 | CTCGCTGCGGCACTGCCATTTTCCATATCCACCCTTAGAACGGAGTCACCTAGTGCAG | 13100 fluorescence intensity (a.u.)
13 | ATCGGGCGACCAATCTGAATGAGCCTCTATTTCTACTTCTCGGAGTCACCTAGTGCAG | 8500 fluorescence intensity (a.u.)
14 | ACTTGCACACACACTTGCTCCTCATTCCTCTCTCCTCTCCCGGAGTCACCTAGTGCAG | 8150 fluorescence intensity (a.u.)
15 | ACTGCCGCAGCCGTCATCACCGTCGACCTCACCGGCGCCGCGGAGTCACCTAGTGCAG | 10500 fluorescence intensity (a.u.)
16 | TATTCTCGCCACCTAGTATAAAAAATCATGGTACTTTGTTCGGAGTCACCTAGTGCAG | 8660 fluorescence intensity (a.u.)
17 | TAGCTCCAGTTATCTTTTAATTTTCCGCTGTATTTATGTACGGAGTCACCTAGTGCAG | 12300 fluorescence intensity (a.u.)
18 | AGGAAATTTTAGACCTTTCCATTTCTCTTCTTCTTAGCTACGGAGTCACCTAGTGCAG | 9940 fluorescence intensity (a.u.)
19 | TTGCTGCTTTCATGTTGCCGTTCTTGCTTGTTACAATTGACGGAGTCACCTAGTGCAG | 10800 fluorescence intensity (a.u.)
20 | GCTGGTCACATCACAAACACGTACACTCACACCGTTGCCTCGGAGTCACCTAGTGCAG | 12300 fluorescence intensity (a.u.)
21 | TGTCCTACTACTAACATTTTTGTTCCCATTTCGATACCCACGGAGTCACCTAGTGCAG | 8090 fluorescence intensity (a.u.)

Reprinted: nos. 19–20
Row | Sequence | binding signal
19 | TTGCTGCTTTCATGTTGCCGTTCTTGCTTGTTACAATTGACGGAGTCACCTAGTGCAG | 10800 fluorescence intensity (a.u.)
20 | GCTGGTCACATCACAAACACGTACACTCACACCGTTGCCTCGGAGTCACCTAGTGCAG | 12300 fluorescence intensity (a.u.)

Next part.

Row | Sequence | binding signal
22 | GTTGCAAAATTTTTCTTCAAACTCCTAATTTTTTCATCACCGGAGTCACCTAGTGCAG | 14200 fluorescence intensity (a.u.)
23 | AACCATCTATACGACTCTATCTTTTCATTACTTAGCAGTGCGGAGTCACCTAGTGCAG | 8390 fluorescence intensity (a.u.)
24 | GCTATTATCTTTTGTGTTAGCTATTTCTCTATGATATACCCGGAGTCACCTAGTGCAG | 9530 fluorescence intensity (a.u.)
25 | CCACTCATTCTCATTTACAAGTCATTTCCACTTTGACCATCGGAGTCACCTAGTGCAG | 11700 fluorescence intensity (a.u.)
26 | CCGCCGCCGCCAGCCTTCCTCGCATGCCCTCCTCTGACCTCGGAGTCACCTAGTGCAG | 8330 fluorescence intensity (a.u.)
27 | CGAGCTTTCACTTCTGCGAGGTTGTGTGTTCTTCTAGGGGCGGAGTCACCTAGTGCAG | 8080 fluorescence intensity (a.u.)
28 | ATCTCCACCTAACGAACACTCAGTCTTTTCTGCGTGAGGGCGGAGTCACCTAGTGCAG | 9260 fluorescence intensity (a.u.)
29 | TCGTTGCATTCCCACGCGTATTTAACACAACACTTTTAATCGGAGTCACCTAGTGCAG | 9930 fluorescence intensity (a.u.)
30 | GCGTATCCTTATCTGAATATTTGTTTACGTTTCGGCATCTCGGAGTCACCTAGTGCAG | 13000 fluorescence intensity (a.u.)
31 | CGCCTCGCTGTTGTCGCCGATCCGCCATGAGCTCGCCGGCCGGAGTCACCTAGTGCAG | 9720 fluorescence intensity (a.u.)
32 | TGCCCGTTCGGATCCGGCTAGCTAGCCTCCAGCTCGCCTTCGGAGTCACCTAGTGCAG | 8800 fluorescence intensity (a.u.)
33 | AAACCCGCCGCTTTGATTGTACTTGTGCTTTGCTGTTAAACGGAGTCACCTAGTGCAG | 12600 fluorescence intensity (a.u.)
34 | CTCGTCGTCATCGTCCTCTTCTTCGTCCTCATCGTCGTCGCGGAGTCACCTAGTGCAG | 15500 fluorescence intensity (a.u.)
35 | CCGCCGTGGTGCTCTCCTCGACATCCTTCTTCTCCTCATCCGGAGTCACCTAGTGCAG | 8860 fluorescence intensity (a.u.)
36 | ACATGTACTACTGCTCAACCGTACTTTTCAAGTTGCATTCCGGAGTCACCTAGTGCAG | 9300 fluorescence intensity (a.u.)
37 | GATTTATTATTATTATTTTGTGTGTGTGTGTAAAAATCGTCGGAGTCACCTAGTGCAG | 8580 fluorescence intensity (a.u.)
38 | AGTAATGTTCTATCCATATGCTCCAGTATGTACTTGTCAACGGAGTCACCTAGTGCAG | 9400 fluorescence intensity (a.u.)
39 | GGTGGGCTATAAATATAGTTGGGGAGGGGAGGGAAGACCCCGGAGTCACCTAGTGCAG | 16700 fluorescence intensity (a.u.)
40 | ACTTGAGAATTGGATTTACCAGTTTGAGGGGTTTTTTATTCGGAGTCACCTAGTGCAG | 9510 fluorescence intensity (a.u.)
41 | CGCGATGGAGCGGTATCCGTTCTTTCTTTTATATTTTTCTCGGAGTCACCTAGTGCAG | 9490 fluorescence intensity (a.u.)
42 | CTTGTTACTTGCAACTCTTTCTCTAATCTTGCTTCGGAAACGGAGTCACCTAGTGCAG | 8370 fluorescence intensity (a.u.)
